## Cell number after 72 h of treatment

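Human melanoma cell lines in 1,536-well plates were treated with a pair of drugs for 72 h, then fixed, stained and imaged. Values are the number of DAPI-stained nuclei as a percentage of the DMSO control: 100 is no effect, lower means fewer cells. Concentrations were fixed for each drug; these are the lower of two levels, a fifth of the higher. The file gives one value for each pair and line, without errors, so small differences may be noise.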 This is part of the screen, not chosen by result. A dash means that no value is listed here.

Drug key:
veliparib (1.4 µM): C[C@]1(c2nc3c(C(N)=O)cccc3[nH]2)CCCN1
gemcitabine (0.0004 µM): Nc1ccn([C@@H]2O[C@H](CO)[C@@H](O)C2(F)F)c(=O)n1
decitabine (0.1 µM): Nc1ncn([C@H]2C[C@H](O)[C@@H](CO)O2)c(=O)n1
fludarabine (0.2 µM): Nc1nc(F)nc2c1ncn2[C@@H]1O[C@H](CO)[C@@H](O)[C@@H]1O
GW441756 (0.4 µM): Cn1cc(/C=C2\C(=O)Nc3cccnc32)c2ccccc21
palbociclib (0.04 µM): CC(=O)c1c(C)c2cnc(Nc3ccc(N4CCNCC4)cn3)nc2n(C2CCCC2)c1=O
vorinostat (0.08 µM): O=C(CCCCCCC(=O)Nc1ccccc1)NO
docetaxel (0.0001 µM): CC(=O)O[C@@]12CO[C@@H]1C[C@H](O)[C@@]1(C)C(=O)[C@H](O)C3=C(C)[C@@H](OC(=O)[C@H](O)[C@@H](NC(=O)OC(C)(C)C)c4ccccc4)C[C@@](O)([C@@H](OC(=O)c4ccccc4)[C@H]21)C3(C)C

Pair,COLO 800,IPC-298,IST-MEL1,C32,COLO 829,A2058,A375,MEL-HO,LOX IMVI,COLO 792,G-361,501mel,A101D,LB2518-MEL
palbociclib + fludarabine,77.6,78.8,81.8,73.2,87.0,87.1,15.5,82.8,43.9,67.9,57.1,-,79.6,71.7
decitabine + GW441756,105,59.4,85.3,92.5,77.7,97.7,-,70.9,104,87.4,91.8,75.8,92.5,71.2
docetaxel + veliparib,37.0,65.9,54.2,80.1,44.5,9.2,19.1,54.0,59.7,29.5,18.5,-,58.3,62.7
gemcitabine + veliparib,73.8,83.5,64.6,112,75.1,77.1,86.0,91.7,97.8,103,96.0,-,86.7,96.2
GW441756 + palbociclib,74.9,88.9,79.1,69.4,96.9,95.1,-,67.6,121,70.1,88.8,54.1,77.6,80.4
gemcitabine + decitabine,65.2,64.9,70.2,99.5,72.0,79.7,110,71.8,65.7,77.7,94.0,-,80.0,93.5
decitabine + docetaxel,50.8,56.6,49.7,91.7,58.5,14.8,33.8,55.7,40.0,30.4,23.8,-,74.8,68.6
palbociclib + decitabine,45.5,63.8,78.4,99.4,84.0,89.7,64.0,79.7,96.8,70.7,72.7,-,75.1,79.2
gemcitabine + vorinostat,121,84.4,67.2,105,88.2,92.3,128,76.6,64.0,97.6,94.2,-,110,-
vorinostat + fludarabine,103,98.7,94.7,102,126,95.3,10.6,85.5,92.4,100,85.1,-,103,110
fludarabine + GW441756,113,105,97.8,103,104,106,-,100,83.2,82.0,95.6,8.7,99.5,127
GW441756 + docetaxel,35.8,64.5,78.2,65.2,52.6,9.7,-,63.8,39.5,30.9,17.5,52.3,66.2,58.8
docetaxel + gemcitabine,42.8,58.1,47.6,61.9,46.7,9.0,28.1,60.0,58.7,31.2,30.2,-,70.5,64.3
palbociclib + veliparib,85.1,85.1,88.8,89.2,94.2,101,53.2,86.5,55.9,63.4,95.8,-,82.4,80.3
GW441756 + veliparib,69.7,102,101,120,79.7,92.1,90.9,87.5,87.0,109,99.9,112,95.8,106
vorinostat + decitabine,111,72.2,78.7,109,83.0,91.8,98.1,71.3,56.4,75.7,75.7,-,78.9,85.4
fludarabine + docetaxel,40.7,66.0,48.4,82.4,39.7,6.6,8.1,50.0,76.0,29.6,22.7,-,51.6,64.6
palbociclib + vorinostat,68.0,92.1,88.7,72.8,91.4,97.8,60.2,81.0,70.5,68.3,102,-,88.5,79.0
gemcitabine + GW441756,79.9,91.9,63.5,104,52.9,102,-,73.0,98.9,97.2,86.9,-,91.0,-
vorinostat + veliparib,82.5,101,96.0,80.7,99.9,84.8,90.1,85.3,70.3,88.1,91.7,-,87.5,86.9
gemcitabine + palbociclib,84.4,82.3,63.0,79.3,91.8,93.5,72.6,90.6,127,73.6,93.3,-,81.8,79.3
docetaxel + palbociclib,50.6,64.8,66.2,76.3,56.9,9.0,29.9,51.8,66.4,39.9,24.3,-,72.3,65.6
decitabine + veliparib,75.3,62.7,74.0,105,84.8,79.1,80.4,85.0,76.5,81.9,96.9,-,80.8,98.3
fludarabine + veliparib,72.7,94.1,99.7,97.0,95.4,88.2,25.8,108,114,84.3,90.8,-,96.4,112
fludarabine + decitabine,93.9,65.8,75.2,103,74.5,78.9,13.0,80.1,150,76.2,119,-,90.5,99.2
vorinostat + docetaxel,33.0,72.9,60.9,88.6,62.2,7.5,20.5,57.1,54.4,25.3,23.5,-,67.7,70.5
fludarabine + gemcitabine,88.8,83.4,62.5,84.8,84.7,85.4,19.6,68.9,124,96.3,83.3,-,80.0,104

Source: doi:10.1371/journal.pone.0140310, primary screening data, rounded.